No constants are given. Whether binding was seen depends on the method and setting. Some binding calls cover weakened binding; strength is not graded here.
Columns and labels:
[1] = molecular target: FLAG-tagged NHP IL-13 (cynomolgus monkey); experiment: competition ELISA: IL-13Ralpha1-Fc coated on the plate, FLAG-tagged NHP IL-13 added with rising MJ2-7; the blocked partner is IL-13Ralpha1-Fc
[2] = molecular target: FLAG-tagged NHP IL-13 (cynomolgus monkey); experiment: competition ELISA: IL-13Ralpha2-Fc coated on the plate, FLAG-tagged NHP IL-13 added with rising MJ2-7; the blocked partner is IL-13Ralpha2-Fc
[3] = molecular target: FLAG-tagged NHP IL-13 (cynomolgus monkey); experiment: competition ELISA on coated IL-13Rα1-Fc and IL-13Rα2-Fc
[4] = molecular target: recombinant human IL-13-FLAG (human) (UniProt P35225); experiment: competitive ELISA on anti-FLAG coated plate, used to quantify the antibody in sheep serum
[5] = molecular target: recombinant human IL-13-FLAG (human) (UniProt P35225); experiment: ELISA, recombinant human IL-13-FLAG captured by anti-FLAG antibody, detection with anti-human IgG (Fc)-HRP

The chains behind the UniProt entries cited, without tags or fusion partners. Where a name states a change or a piece, a line headed by the entry shows the natural chain unless it says otherwise.
UniProt P35225: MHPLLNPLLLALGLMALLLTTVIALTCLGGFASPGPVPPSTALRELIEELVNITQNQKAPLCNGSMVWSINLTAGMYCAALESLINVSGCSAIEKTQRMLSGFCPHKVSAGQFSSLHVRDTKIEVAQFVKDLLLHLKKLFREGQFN

B1: mouse monoclonal antibody MJ 2-7 (antibody, mouse IgG1, V domains shown)
VH: EVQLQQSGAELVKPGASVKLSCTGSGFNIKDTYIHWVKQRPEQGLEWIGRIDPANDNIKYDPKFQGKATITADTSSNTAYLQLNSLTSEDTAVYYCARSEENWYDFFDYWGQGTTLTVSS
VL: DVLMTQTPLSLPVSLGDQASISCRSSQSIVHSNGNTYLEWYLQKPGQSPKLLIYKVSNRFSGVPDRFSGSGSGTDFTLKISRVEAEDLGVYYCFQGSHIPYTFGGGTKLEIK
binding [1]: binds
binding [2]: binds
binding [3]: binds

B2: humanized 13.2v.2 (antibody, V domains shown)
VH: EVQLVESGGGLVQPGGSLRLSCAASGFTFISYAMSWVRQAPGKGLEWVASISSGGNTYYPDSVKGRFTISRDNAKNSLYLQMNSLRAEDTAVYYCARLDGYYFGFAYWGQGTLVTVSS
VL: DIQMTQSPSSLSASVGDRVTITCKASESVDNYGKSLMHWYQQKPGKAPKLLIYRASNLESGVPSRFSGSGSGTDFTLTISSLQPEDFATYYCQQSNEDPWTFGGGTKVEIK
binding [4]: binds

B3: humanized MJ2-7 v.2-11 (antibody, human IgG1, kappa, V domains shown)
VH: EVQLVESGGGLVQPGGSLRLSCAASGFNIKDTYIHWVRQAPGKGLEWIGRIDPANDNIKYDPKFQGRFTISADNAKNSAYLQMNSLRAEDTAVYYCARSEENWYDFFDYWGQGTLVTVSS
VL: DIQMTQSPSSLSASVGDRVTITCRSSQSIVHSNGNTYLEWYQQKPGKAPKLLIYKVSNRFSGVPSRFSGSGSGTDFTLTISSLQPEDFATYYCFQGSHIPYTFGGGTKVEIKR
binding [5]: binds

Source: US20090068195A1
